The values below come from article PMC9953885 (Biosensors, 2023).

Structures can show the parent of a compound that is named as a salt.

In the test the target is T1, human pancreatic lipase (hPL) (Homo sapiens, UniProt P16233).
T1 construct: gene PNLIP
T1 sequence (P16233 17-465): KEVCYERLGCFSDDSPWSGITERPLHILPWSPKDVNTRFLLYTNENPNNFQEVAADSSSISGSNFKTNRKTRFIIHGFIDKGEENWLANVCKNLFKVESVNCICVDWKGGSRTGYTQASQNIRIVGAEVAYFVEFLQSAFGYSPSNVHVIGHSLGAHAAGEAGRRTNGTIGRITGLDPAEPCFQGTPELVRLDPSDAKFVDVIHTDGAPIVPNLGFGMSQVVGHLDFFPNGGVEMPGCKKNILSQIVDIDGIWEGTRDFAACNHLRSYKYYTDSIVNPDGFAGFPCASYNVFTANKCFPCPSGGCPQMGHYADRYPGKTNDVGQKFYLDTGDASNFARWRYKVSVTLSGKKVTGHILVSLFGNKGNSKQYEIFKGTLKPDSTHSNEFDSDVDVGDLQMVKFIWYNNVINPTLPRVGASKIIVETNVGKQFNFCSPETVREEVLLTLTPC
As to conditions: 10 µM; inhibitor. The procedure:
First, we evaluated the inhibitory effect of 94 natural products derived from herbs and 94 drugs on hPL. In our high-throughput screening system, 1 ug/mL hPL was used, and the final concentration of the 94 natural products derived from herbs and 94 drugs used was 10 μM. Other conditions were the same as in the selectivity experiments. […] RLE was incubated with hPL and various enzymes, such as hCES1A, hCES2A, CA, AchE, BchE, 5-HKE, lysozyme, trypsin, thrombin, α-CT, FAP, PREP, pepsin, α-amylase, plasmin, notum and hSA, in a 100 µL incubation mixture consisting of Tris-HCl (pH = 7.4, 25 mM), NaCl (150 mM), CaCl2 (1 mM) and porcine bile salt (0.1 mg/mL) at a concentration of 1.5 µg/mL. The reaction was initiated by adding RLE to the preincubated enzyme mixture at 37 °C, and metabolite formation was determined by measuring the fluorescence intensity of resorufin at 590 nm. In addition, several amino acids (IIe, His, Trp, Val, Leu, Tyr, Ala, Thr, Pro, Asp, Lys, Met, Cys, Ser, Phe, Gly, Glu and Gln), ions (Ni^2+, Ca^2+, Na^+, K^+, Cu^2+, Zn^2+, Mg^2+, NH4^+, Cu^+, Fe^2+ and CN^-) and GSH were measured. The concentration of these interfering factors was 5 μM. […] In this case, a visual high-throughput assay was established to screen hPL inhibitors, using RLE as a fluorogenic substrate in a 96-well microplate.

As to `COc1cc2c(cc1OC)C(=O)C(CC1CCN(Cc3ccccc3)CC1)C2` (stereo not shown) [Donepezil Hydrochloride], the “% of control remaining” value was found to be 100.82%.
